Measured values published in the supplement of paper PMC7661543.
The effect of the compound repeats well; differences between the knockouts mostly do not.

Test system: HCC-38
Test: relative cell number vs DMSO control (72 h) (% of DMSO); higher = less growth inhibition (more cells)
Method: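 QMAP-Seq: a pool of 5 breast cancer cell lines (ZR-75-1, SKBR3, HCC-38, MDA-MB-231, BT-20), each carrying 12 doxycycline-inducible Cas9 sgRNA perturbations (11 knockouts plus non-targeting sgNT), was treated with compounds for 72 h at four 10-fold doses (10 nM-10 uM or 1 nM-1 uM range). Barcodes were amplified and sequenced, and cell number was interpolated from 293T spike-in standard curves. The result is expressed as % of the median of DMSO wells. Two biological replicates.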

COc1cc2nccc(Oc3ccc(NC(=O)C4(C(=O)Nc5ccc(F)cc5)CC4)cc3)c2cc1OC [Cabozantinib]
Settings	relative cell number
sgRNA knockout: sgATF3, 10 nM	90.8
sgRNA knockout: sgATF3, 100 nM	93
sgRNA knockout: sgATF3, 1000 nM	91.7
sgRNA knockout: sgATF3, 10000 nM	64.4
sgRNA knockout: sgATF4, 10 nM	80.4
sgRNA knockout: sgATF4, 100 nM	95.8
sgRNA knockout: sgATF4, 1000 nM	92.8
sgRNA knockout: sgATF4, 10000 nM	64.2
sgRNA knockout: sgATF6, 10 nM	105
sgRNA knockout: sgATF6, 100 nM	110
sgRNA knockout: sgATF6, 1000 nM	96.1
sgRNA knockout: sgATF6, 10000 nM	68.8
sgRNA knockout: sgATG7, 10 nM	77
sgRNA knockout: sgATG7, 100 nM	93.1
sgRNA knockout: sgATG7, 1000 nM	97.5
sgRNA knockout: sgATG7, 10000 nM	60.2
sgRNA knockout: sgERN1, 10 nM	97.2
sgRNA knockout: sgERN1, 100 nM	95
sgRNA knockout: sgERN1, 1000 nM	96.6
sgRNA knockout: sgERN1, 10000 nM	58.8
sgRNA knockout: sgHSF1, 10 nM	121
sgRNA knockout: sgHSF1, 100 nM	98.9
sgRNA knockout: sgHSF1, 1000 nM	107
sgRNA knockout: sgHSF1, 10000 nM	71.3
sgRNA knockout: sgHSF2, 10 nM	99.1
sgRNA knockout: sgHSF2, 100 nM	99.8
sgRNA knockout: sgHSF2, 1000 nM	109
sgRNA knockout: sgHSF2, 10000 nM	61.656
sgRNA knockout: sgKEAP1, 10 nM	116
sgRNA knockout: sgKEAP1, 100 nM	92.9
sgRNA knockout: sgKEAP1, 1000 nM	117
sgRNA knockout: sgKEAP1, 10000 nM	62.9
sgRNA knockout: sgNFE2L2, 10 nM	79
sgRNA knockout: sgNFE2L2, 100 nM	88.9
sgRNA knockout: sgNFE2L2, 1000 nM	95.2
sgRNA knockout: sgNFE2L2, 10000 nM	68.3
sgRNA knockout: sgSLC35F2, 10 nM	84.2
sgRNA knockout: sgSLC35F2, 100 nM	91
sgRNA knockout: sgSLC35F2, 1000 nM	102
sgRNA knockout: sgSLC35F2, 10000 nM	59.8
sgRNA knockout: sgXBP1, 10 nM	78.6
sgRNA knockout: sgXBP1, 100 nM	98
sgRNA knockout: sgXBP1, 1000 nM	95.3
sgRNA knockout: sgXBP1, 10000 nM	60.6

COc1cc2c(cc1-c1c(C)noc1C)ncc1[nH]c(=O)n([C@H](C)c3ccccn3)c12 [IBET151]
Settings	relative cell number
sgRNA knockout: sgATF3, 10 nM	86.4
sgRNA knockout: sgATF3, 100 nM	84.1
sgRNA knockout: sgATF3, 1000 nM	53.8
sgRNA knockout: sgATF3, 10000 nM	54.4
sgRNA knockout: sgATF4, 10 nM	87.5
sgRNA knockout: sgATF4, 100 nM	83.3
sgRNA knockout: sgATF4, 1000 nM	50.7
sgRNA knockout: sgATF4, 10000 nM	53.2
sgRNA knockout: sgATF6, 10 nM	85.1
sgRNA knockout: sgATF6, 100 nM	93.2
sgRNA knockout: sgATF6, 1000 nM	67.7
sgRNA knockout: sgATF6, 10000 nM	54.6
sgRNA knockout: sgATG7, 10 nM	87.9
sgRNA knockout: sgATG7, 100 nM	81.4
sgRNA knockout: sgATG7, 1000 nM	56.3
sgRNA knockout: sgATG7, 10000 nM	53.2
sgRNA knockout: sgERN1, 10 nM	86.1
sgRNA knockout: sgERN1, 100 nM	87.7
sgRNA knockout: sgERN1, 1000 nM	59.2
sgRNA knockout: sgERN1, 10000 nM	54.5
sgRNA knockout: sgHSF1, 10 nM	88.6
sgRNA knockout: sgHSF1, 100 nM	85.5
sgRNA knockout: sgHSF1, 1000 nM	63.9
sgRNA knockout: sgHSF1, 10000 nM	58.7
sgRNA knockout: sgHSF2, 10 nM	108
sgRNA knockout: sgHSF2, 100 nM	93.4
sgRNA knockout: sgHSF2, 1000 nM	60.8
sgRNA knockout: sgHSF2, 10000 nM	53.9
sgRNA knockout: sgKEAP1, 10 nM	91
sgRNA knockout: sgKEAP1, 100 nM	96.3
sgRNA knockout: sgKEAP1, 1000 nM	72.2
sgRNA knockout: sgKEAP1, 10000 nM	54.4
sgRNA knockout: sgNFE2L2, 10 nM	91
sgRNA knockout: sgNFE2L2, 100 nM	74.9
sgRNA knockout: sgNFE2L2, 1000 nM	50.3
sgRNA knockout: sgNFE2L2, 10000 nM	51.9
sgRNA knockout: sgSLC35F2, 10 nM	89.3
sgRNA knockout: sgSLC35F2, 100 nM	76.1
sgRNA knockout: sgSLC35F2, 1000 nM	57.4
sgRNA knockout: sgSLC35F2, 10000 nM	51.1
sgRNA knockout: sgXBP1, 10 nM	88.6
sgRNA knockout: sgXBP1, 100 nM	81.2
sgRNA knockout: sgXBP1, 1000 nM	52.8
sgRNA knockout: sgXBP1, 10000 nM	52.6

Cc1nc(Nc2ncc(C(=O)Nc3c(C)cccc3Cl)s2)cc(N2CCN(CCO)CC2)n1 [Dasatinib]
Settings	relative cell number
sgRNA knockout: sgATF3, 10 nM	94.4
sgRNA knockout: sgATF3, 100 nM	71.1
sgRNA knockout: sgATF3, 1000 nM	64.3
sgRNA knockout: sgATF3, 10000 nM	37.5
sgRNA knockout: sgATF4, 10 nM	99.6
sgRNA knockout: sgATF4, 100 nM	76.5
sgRNA knockout: sgATF4, 1000 nM	62
sgRNA knockout: sgATF4, 10000 nM	38.1
sgRNA knockout: sgATF6, 10 nM	89.2
sgRNA knockout: sgATF6, 100 nM	64.7
sgRNA knockout: sgATF6, 1000 nM	80.8
sgRNA knockout: sgATF6, 10000 nM	41.9
sgRNA knockout: sgATG7, 10 nM	96.3
sgRNA knockout: sgATG7, 100 nM	68.5
sgRNA knockout: sgATG7, 1000 nM	64
sgRNA knockout: sgATG7, 10000 nM	33.1
sgRNA knockout: sgERN1, 10 nM	78.5
sgRNA knockout: sgERN1, 100 nM	63.5
sgRNA knockout: sgERN1, 1000 nM	59.2
sgRNA knockout: sgERN1, 10000 nM	38.7
sgRNA knockout: sgHSF1, 10 nM	77.4
sgRNA knockout: sgHSF1, 100 nM	75.6
sgRNA knockout: sgHSF1, 1000 nM	77.2
sgRNA knockout: sgHSF1, 10000 nM	27
sgRNA knockout: sgHSF2, 10 nM	87.7
sgRNA knockout: sgHSF2, 100 nM	68.2
sgRNA knockout: sgHSF2, 1000 nM	65.6
sgRNA knockout: sgHSF2, 10000 nM	31.3
sgRNA knockout: sgKEAP1, 10 nM	86.3
sgRNA knockout: sgKEAP1, 100 nM	70.5
sgRNA knockout: sgKEAP1, 1000 nM	80.7
sgRNA knockout: sgKEAP1, 10000 nM	27.6
sgRNA knockout: sgNFE2L2, 10 nM	90.6
sgRNA knockout: sgNFE2L2, 100 nM	61.3
sgRNA knockout: sgNFE2L2, 1000 nM	54.6
sgRNA knockout: sgNFE2L2, 10000 nM	32.3
sgRNA knockout: sgSLC35F2, 10 nM	95.01
sgRNA knockout: sgSLC35F2, 100 nM	60.9
sgRNA knockout: sgSLC35F2, 1000 nM	62.6
sgRNA knockout: sgSLC35F2, 10000 nM	32.7
sgRNA knockout: sgXBP1, 10 nM	88.2
sgRNA knockout: sgXBP1, 100 nM	65
sgRNA knockout: sgXBP1, 1000 nM	60.7
sgRNA knockout: sgXBP1, 10000 nM	37.6
